Article PMC3271066
Results are given in words; binding and its absence hold for the method and conditions named. In cells and extracts the contact can be indirect. A yes stands for co-enrichment or nearness to the bait. Other partners may have been found. For some assays here: No binding means not detected with the bait. Tags and fused reporters may be left off the sequences shown.

By UniProt entry, the sequences of proteins in these tests, tags left out.
UniProt Q9HDV4: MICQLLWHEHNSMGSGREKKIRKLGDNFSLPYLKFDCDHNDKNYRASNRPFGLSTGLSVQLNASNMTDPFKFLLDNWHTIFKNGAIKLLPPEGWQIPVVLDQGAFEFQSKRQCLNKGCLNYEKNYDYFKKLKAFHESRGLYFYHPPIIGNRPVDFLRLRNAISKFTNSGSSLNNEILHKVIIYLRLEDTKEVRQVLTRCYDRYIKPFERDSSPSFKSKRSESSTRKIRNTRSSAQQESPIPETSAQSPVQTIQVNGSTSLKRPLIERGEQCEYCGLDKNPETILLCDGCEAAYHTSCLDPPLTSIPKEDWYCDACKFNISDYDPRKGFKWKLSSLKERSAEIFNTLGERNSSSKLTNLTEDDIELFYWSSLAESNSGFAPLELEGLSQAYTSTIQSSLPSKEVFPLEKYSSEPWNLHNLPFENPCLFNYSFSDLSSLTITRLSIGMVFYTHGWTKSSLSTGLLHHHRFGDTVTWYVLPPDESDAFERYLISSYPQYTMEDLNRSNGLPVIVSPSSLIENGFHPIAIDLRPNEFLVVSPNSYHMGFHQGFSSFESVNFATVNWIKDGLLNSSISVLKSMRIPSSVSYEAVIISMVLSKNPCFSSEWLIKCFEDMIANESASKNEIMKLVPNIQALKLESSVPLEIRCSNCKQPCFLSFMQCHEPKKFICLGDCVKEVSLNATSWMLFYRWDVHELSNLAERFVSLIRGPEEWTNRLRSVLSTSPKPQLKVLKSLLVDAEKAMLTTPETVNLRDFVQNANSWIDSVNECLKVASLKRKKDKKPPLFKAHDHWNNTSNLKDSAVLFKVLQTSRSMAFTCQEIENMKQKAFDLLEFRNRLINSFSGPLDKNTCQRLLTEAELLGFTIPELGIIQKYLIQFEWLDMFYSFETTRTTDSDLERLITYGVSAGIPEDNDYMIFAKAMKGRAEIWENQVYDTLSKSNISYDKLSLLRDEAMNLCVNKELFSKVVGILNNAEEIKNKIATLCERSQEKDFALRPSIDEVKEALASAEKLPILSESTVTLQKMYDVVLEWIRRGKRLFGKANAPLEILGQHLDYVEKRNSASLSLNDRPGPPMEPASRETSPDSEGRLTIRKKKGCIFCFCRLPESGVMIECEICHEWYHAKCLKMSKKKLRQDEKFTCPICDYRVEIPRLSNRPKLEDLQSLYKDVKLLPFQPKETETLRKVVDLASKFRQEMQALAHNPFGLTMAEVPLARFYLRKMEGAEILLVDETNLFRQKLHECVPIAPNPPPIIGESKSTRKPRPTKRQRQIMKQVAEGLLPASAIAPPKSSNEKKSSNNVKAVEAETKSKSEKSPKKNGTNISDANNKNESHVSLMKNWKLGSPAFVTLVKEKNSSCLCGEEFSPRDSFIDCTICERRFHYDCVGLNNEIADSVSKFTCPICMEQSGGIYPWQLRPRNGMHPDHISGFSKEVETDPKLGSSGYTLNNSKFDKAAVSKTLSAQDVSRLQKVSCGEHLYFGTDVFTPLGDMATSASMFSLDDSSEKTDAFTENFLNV
UniProt O60016: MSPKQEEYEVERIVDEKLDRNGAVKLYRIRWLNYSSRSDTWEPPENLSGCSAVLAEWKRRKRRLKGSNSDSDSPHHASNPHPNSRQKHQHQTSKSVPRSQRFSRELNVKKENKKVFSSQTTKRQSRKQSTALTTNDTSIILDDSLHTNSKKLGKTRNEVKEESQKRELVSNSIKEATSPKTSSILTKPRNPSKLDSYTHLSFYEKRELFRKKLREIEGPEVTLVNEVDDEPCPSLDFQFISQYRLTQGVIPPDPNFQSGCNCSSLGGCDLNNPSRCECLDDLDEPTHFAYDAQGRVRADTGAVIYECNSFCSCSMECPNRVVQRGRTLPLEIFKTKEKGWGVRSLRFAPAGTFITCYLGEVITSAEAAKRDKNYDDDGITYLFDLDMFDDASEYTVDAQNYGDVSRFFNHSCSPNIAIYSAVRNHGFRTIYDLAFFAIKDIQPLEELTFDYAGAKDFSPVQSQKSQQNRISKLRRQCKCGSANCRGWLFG

T1: FLAG-Raf1 (S. pombe) (UniProt O74910)
T1 sequence: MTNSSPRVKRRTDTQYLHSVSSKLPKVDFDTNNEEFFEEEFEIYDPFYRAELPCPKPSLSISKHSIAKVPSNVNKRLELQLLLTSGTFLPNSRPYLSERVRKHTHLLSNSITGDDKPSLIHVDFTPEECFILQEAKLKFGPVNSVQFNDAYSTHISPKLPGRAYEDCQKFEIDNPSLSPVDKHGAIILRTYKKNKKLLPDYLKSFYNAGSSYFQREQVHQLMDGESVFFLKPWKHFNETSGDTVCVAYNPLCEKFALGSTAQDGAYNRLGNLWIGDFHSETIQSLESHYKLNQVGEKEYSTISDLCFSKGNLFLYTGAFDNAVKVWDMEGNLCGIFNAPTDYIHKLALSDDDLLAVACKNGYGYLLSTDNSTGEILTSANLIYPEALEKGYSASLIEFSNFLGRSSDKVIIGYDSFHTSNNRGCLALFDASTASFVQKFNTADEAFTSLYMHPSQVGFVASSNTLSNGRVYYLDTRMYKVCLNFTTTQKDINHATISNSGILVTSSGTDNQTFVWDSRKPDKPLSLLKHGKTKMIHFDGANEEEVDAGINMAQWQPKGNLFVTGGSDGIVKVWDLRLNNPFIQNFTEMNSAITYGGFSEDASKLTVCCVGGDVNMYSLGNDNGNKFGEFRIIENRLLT

T2: FLAG-Raf1 (S. pombe), O74910
T2 chain: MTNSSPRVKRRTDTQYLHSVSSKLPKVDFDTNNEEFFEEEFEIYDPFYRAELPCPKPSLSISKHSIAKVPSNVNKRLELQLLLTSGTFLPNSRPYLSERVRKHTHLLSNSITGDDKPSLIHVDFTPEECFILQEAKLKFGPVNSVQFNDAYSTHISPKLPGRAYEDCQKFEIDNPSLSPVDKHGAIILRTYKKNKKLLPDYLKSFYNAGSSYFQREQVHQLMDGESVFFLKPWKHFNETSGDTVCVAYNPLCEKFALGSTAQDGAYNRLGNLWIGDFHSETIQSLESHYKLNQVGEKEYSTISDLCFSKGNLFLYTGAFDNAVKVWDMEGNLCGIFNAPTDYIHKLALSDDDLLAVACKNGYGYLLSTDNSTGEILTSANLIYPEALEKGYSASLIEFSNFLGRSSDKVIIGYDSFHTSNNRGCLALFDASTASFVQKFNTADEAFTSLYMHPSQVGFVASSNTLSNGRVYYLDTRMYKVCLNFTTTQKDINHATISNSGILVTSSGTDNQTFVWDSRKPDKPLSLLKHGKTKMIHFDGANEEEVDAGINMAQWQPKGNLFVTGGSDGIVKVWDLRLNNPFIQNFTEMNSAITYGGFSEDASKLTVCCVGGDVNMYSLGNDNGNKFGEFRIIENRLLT


Assays:
[1] = target: T1, FLAG-Raf1 (S. pombe); experiment: affinity purification with mass spectrometry; single-step FLAG affinity purification of FLAG-Raf1 from S. pombe lysate (50 mM Hepes pH7.5, 150 mM KCl, 0.1% NP40), anti-FLAG M2 on proteinG Dynabeads 15 min, Benzonase, on-bead tryptic digestion, LC-MS/MS
[2] = target: T2, FLAG-Raf1 (S. pombe), O74910; experiment: as above; details: remark: other sources report otherwise

Row | Molecule | binding [1] | binding [2]
1 | Lid2 (from UniProt Q9HDV4 1-1513) (enzyme) | no binding | –
2 | Clr4 (from UniProt O60016 1-490) (enzyme) | binds | –
3 | Rik1 (protein, UniProt Q10426 1-1040) MALCVHSFWATAVDTATSCHFISSENCLVLLQALKINIYLCSEVHGLQFFTSIPLFSTVKHIRPYRPPGLDRDYLFVVLNDDTYFSIYWDEDYQKVIVDHPPVRYRVTFPWNRNAKSYCLVDLRMRAIFLSIDEISMICIRILSAEERLKTGRSIDSGFPFSFPVHLIYDMCILNDSSTPTLVVLHSDGLDCYVTAFLLDLSSKSLGKGIRLFERVKPSMIMPFGKRGLLVFESLFIHCMYRGNFVTINGPCTTYMHWTPLKGQKMHYIVCDTNGYLFGVYSSILGKNKWSLVMERLPIPPFDFITSLNSIHEGLLFIGSKNSESKLINLSTLKDVDSIPNLGPIHDLLVLKNDIEKSFLVCAGTPRNASLIYFQHALKLDILGQTKISGILRAMVLPSYPEHKLFLGFPSETVAFNIKEDFQLELDPSLSTKERTIALSGTNGEFVQVTSTFLCIYDSAKRSRLVYIEKITNAACYQEYSAIVINGTALAIFKKDTEVARKVFESEISCLDFSAQFQIGVGFWSKQVMILTFSDNSSISCAFQTNVPSLPRNIILEGVGVDRNLLLVSSGSGEFKSYVLFKNNLVFSETKHFGTTPVSFRRFTMNIGTYIICNNDCPHMVYGFNGALCYMPLSMPQSYDVCQFRDNSGKDFLISVSLGGLKFLQLNPLPELTPRKVLLEHVPLQAIIFQNKLLLRTLENRYEDYESYKENYHLELVDSYDDNSFRVFSFTENERCEKVLKINESSLLVGTSIIEQDKLVPVNGRLILLEFEKELQSLKVVSSMVLSAAVIDLGVYNDRYIVAFGQQVAIVKLTEERLMIDSRISLGSIVLQLIVEGNEIAIADSIGRFTIMYFDGQKFIVVARYLFGENIVKAALYEGTVYIIATNSGLLKLLRYNKDAKNFNDRFICESVYHLHDKVSKFQNFPITNTNSFLEPKMLFATEIGAIGSIVSLKDKELELEELTRKIRKLKFSYLSSMDYESIEADLISPVPFIDGDLVIDVKRWASSELFRLCRSVEHRESLNSYQKVQALLEEIQSLC | binds | –
4 | Cul4 (protein, UniProt O14122 1-734) MPPEAKRIVVKGFDPRKSRQRQETYYVTMIDRLNMALQVVMAGLGLKTGYQELYSGVENLTRADQASRCFNILQHHMSSGIQLLKDSAESFIQLEGTETDTNACTVVVGCWNKWLERVEIVQNIFYYMDKTFLSHHPDYPTIEELSLSLFREKLMAVKNIQIPFLNSLLQSFENLHSSKSTDHAYLQDAMLMLHRTEMYSSVFVPMYLVMLSRFYDTESSQKIQELPLEEYLEYAMSSLEREDAYVEKFDIVRDKKSIRETVQRCLITSHLDTLTKGISQFIEKRDAHSCKLLYALLQFNHETEYLIQPWSDCLVDVGFKLVNDESKDDTLVQELLSFHKFLQVVVDESFLHDETLSYAMRKAFETFINGAKGSQREAPARLIAKYIDYLLRVGEQASGGKPLKEVFSEILDLFRYIASKDIFEAYYKLDIAKRLLLNKSASAQNELMLLDMLKKTCGSQFTHSLEGMFRDVNISKEFTSSFRHSKAAHNLHRDLYVNVLSQAYWPSYPESHIRLPDDMQQDLDCFEKFYLSKQVGKKISWYASLGHCIVKARFPLGNKELSISLFQACVLLQFNNCLGGEGISYQDLKKSTELSDIDLTRTLQSLSCARIRPLVMVPKSKKPSPDTMFYVNEKFTDKLYRVKINQIYLKEERQENSDVQEQVVRDRQFELQASIVRVMKQKEKMKHDDLVQYVINNVKDRGIPLVSDVKTAIEKLLEKEYLEREDNDIYTYVT | binds | –
5 | Raf2, O74560 1-636 (protein) MPPVRAEKKRKTDLIEQVCVTNKAGELVDLEDVLEYGPYSLTGILSSEKDEQEPLFDESIVLGYSIKISPVWTYNLKDVPEKETMSIWIVTPQRRYGILSPSSEYKAIYEQISEKNRLFYLIKTKFKDDMISGTLEDYDNYIEVLKEKLELPSCFQAILLVQKHIRFLLTQMVATSSLHVWSESPFFIRIRSSYEHLILQINKNIYNARQERKKSKLSSNNPSDNNTTMKSSLNQALTLINLPEQPFSISSPTATPQLGVVKRTSPLRFPLNDIWLSGLRIVDPNIESISLWKRIQVSTSPKHQRYISLQEVCSVIAQQLQITNLEALNKLSSHGETLLQIMHTAFTWRGTKLFNDIKHAIGFRSSVQQARSQFRGYCYDYLFMHCNNGEKTSLHLLRTLICMKLDFSNAQLAAKILFHFLLFDIGSGLSGSDYTYEQYINHSAVAFSFTEEIFEKNFVTVLPDFVKLFSISFGYWPAFSFYDELLKLLRNKYPKVYSSTPNLCDQVWLDRTNLFPCNRSTRSTLPYRPTKLLDLASASSCLSKKETDFKQDTGLYSYNLEKVEALKVSPDLQTGIWSCPVQNCLYFAVCDNPYKPSQVIYDHLLGHVDSKFIFKTPSNSVRSFTNKLEHIMYNIN | – | binds
